No constants are given. Whether binding was seen depends on the method and setting. Binding can be weak; no strength is given.
Biological target: cynomolgus monkey DR5 on activated cynomolgus lymphocytes (cynomolgus monkey) (UniProt Q29615)
Assay: flow cytometry of activated cynomolgus monkey lymphocytes, 0.5, 1, 5, 10 µg/ml TRA-8, FITC anti-mouse IgG; Kd calculated but not given

Sequences of proteins named here, by UniProt entry; tags and fusion partners are left off. A change or cut given only in a name is not applied to a line headed by its entry.
UniProt Q29615: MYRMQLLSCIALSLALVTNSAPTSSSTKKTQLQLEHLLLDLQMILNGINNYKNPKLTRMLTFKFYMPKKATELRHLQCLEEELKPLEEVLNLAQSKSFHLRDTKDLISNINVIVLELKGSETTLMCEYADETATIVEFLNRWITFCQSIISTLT

B1: TRA-8 monoclonal anti-human DR5 antibody (mouse-mouse hybridoma TRA-8, ATCC PTA-1428) (antibody, mouse IgG1, kappa, V domains shown)
VH: EVMLVESGGGLVKPGGSLKLSCAASGFTFSSYVMSWVRQTPEKRLEWVATISSGGSYTYYPDSVKGRFTISRDNAKNTLYLQMSSLRSEDTAMYYCARRGDSMITTDYWGQGTTLTVSS
VL: DIVMTQSHKFMSTSVGDRVSITCKASQDVGTAVAWYQQKPGQSPKLLIYWASTRHTGVPDRFTGSGSGTDFTLTISNVQSEDLADYFCQQYSSYRTFGGGTKLEIKR
notes: also called anti-DR5 antibody (clone: TRA-8)
- binding: binds

From EP2287285A2 (UAB RESEARCH FOUNDATION, dated 2011)
